# From the supplement of paper PMC8728848
# The list shows a part of the results.
# B1: CREG (Mus musculus), O88668 (protein)
# chain: MAARAPELARSLLAALLAPALVALLVSPASGRGGRDHGDWDVDRRLPPLPPREDGPRVARFVTHVSDWGSLATISTIKEVRGWPFADIISISDGPPGEGTGEPYMYLSPLQQAVSDLQENPEATLTMSLAQTVYCRNHGFDPQSPLCVHIMMSGTVTKVNKTEEDYARDSLFVRHPEMKHWPSSHNWFFAKLKISRIWVLDYFGGPKVVTPEEYFNVTLQ
# Key:
# Test in all cases: glycan array binding signal (z-score within array); higher = stronger binding
# Details in all cases: glycan notation: IUPAC condensed, linker removed
# [1] = target: Neu5Ac(a2-3)Gal6S(b1-4)[Fuc(a1-3)]GlcNAc
# Method in brief: (§1)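 Glycan array data were curated from 3228 arrays in the Consortium for Functional Glycomics database and kept only where the protein sequence was available. Glycan names were converted to IUPAC-condensed notation, and columns mapping to the same glycan were averaged. The binding signal is a within-array Z-score, averaged across arrays of the same protein sequence at different concentrations or buffers and across linkers. Negative Z-scores can be read as non-binding.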
# [2] = target: Neu5Ac(a2-3)GalNAc
# Method in brief: as §1
# [3] = target: Neu5Ac(a2-3)GalNAc(b1-4)GlcNAc
# Method in brief: as §1
# [4] = target: Neu5Ac(a2-3)[GalNAc(b1-4)]Gal(b1-4)Glc
# Method in brief: as §1
# [5] = target: Neu5Ac(a2-3)[GalNAc(b1-4)]Gal(b1-4)GlcNAc
# Method in brief: as §1
# [6] = target: Neu5Ac(a2-3)[GalNAc(b1-4)]Gal(b1-4)GlcNAc(b1-3)GalNAc
# Method in brief: as §1
# [7] = target: Neu5Ac(a2-3)[Neu5Ac(a2-6)]GalNAc
# Method in brief: as §1
# [8] = target: Neu5Ac(a2-6)Gal
# Method in brief: as §1
# [9] = target: Neu5Ac(a2-6)Gal(b1-4)Glc
# Method in brief: as §1
# [10] = target: Neu5Ac(a2-6)Gal(b1-4)GlcNAc
# Method in brief: as §1
# [11] = target: Neu5Ac(a2-6)Gal(b1-4)GlcNAc(b1-2)Man(a1-3)Man(b1-4)GlcNAc(b1-4)GlcNAc
# Method in brief: as §1
# [12] = target: Neu5Ac(a2-6)Gal(b1-4)GlcNAc(b1-2)Man(a1-3)[Gal(b1-4)GlcNAc(b1-2)Man(a1-6)]Man(b1-4)GlcNAc(b1-4)GlcNAc
# Method in brief: as §1
# [13] = target: Neu5Ac(a2-6)Gal(b1-4)GlcNAc(b1-2)Man(a1-3)[GlcNAc(b1-2)Man(a1-6)]Man(b1-4)GlcNAc(b1-4)GlcNAc
# Method in brief: as §1
# [14] = target: Neu5Ac(a2-6)Gal(b1-4)GlcNAc(b1-2)Man(a1-3)[GlcNAc(b1-2)Man(b1-4)GlcNAc(b1-2)Man(a1-6)]Man(b1-4)GlcNAc(b1-4)GlcNAc
# Method in brief: as §1
# [15] = target: Neu5Ac(a2-6)Gal(b1-4)GlcNAc(b1-2)Man(a1-3)[Man(a1-6)]Man(b1-4)GlcNAc(b1-4)GlcNAc
# Method in brief: as §1
# [16] = target: Neu5Ac(a2-6)Gal(b1-4)GlcNAc(b1-2)Man(a1-3)[Neu5Ac(a2-6)Gal(b1-4)GlcNAc(b1-2)Man(a1-6)]Man(b1-4)GlcNAc(b1-4)GlcNAc
# Method in brief: as §1
# [17] = target: Neu5Ac(a2-6)Gal(b1-4)GlcNAc(b1-2)Man(a1-6)Man(b1-4)GlcNAc(b1-4)GlcNAc
# Method in brief: as §1
# [18] = target: Neu5Ac(a2-6)Gal(b1-4)GlcNAc(b1-2)Man(a1-6)[Gal(b1-4)GlcNAc(b1-2)Man(a1-3)]Man(b1-4)GlcNAc(b1-4)GlcNAc
# Method in brief: as §1
# [19] = target: Neu5Ac(a2-6)Gal(b1-4)GlcNAc(b1-2)Man(a1-6)[GlcNAc(b1-2)Man(a1-3)]Man(b1-4)GlcNAc(b1-4)GlcNAc
# Method in brief: as §1
# [20] = target: Neu5Ac(a2-6)Gal(b1-4)GlcNAc(b1-2)Man(a1-6)[Man(a1-3)]Man(b1-4)GlcNAc(b1-4)GlcNAc
# Method in brief: as §1
# [21] = target: Neu5Ac(a2-6)Gal(b1-4)GlcNAc(b1-3)Gal(b1-3)GlcNAc
# Method in brief: as §1
# [22] = target: Neu5Ac(a2-6)Gal(b1-4)GlcNAc(b1-3)Gal(b1-4)GlcNAc
# Method in brief: as §1
# [23] = target: Neu5Ac(a2-6)Gal(b1-4)GlcNAc(b1-3)Gal(b1-4)GlcNAc(b1-3)Gal(b1-4)GlcNAc
# Method in brief: as §1
# [24] = target: Neu5Ac(a2-6)Gal(b1-4)GlcNAc(b1-3)Gal(b1-4)[Fuc(a1-3)]GlcNAc(b1-3)Gal(b1-4)[Fuc(a1-3)]GlcNAc
# Method in brief: as §1
# [25] = target: Neu5Ac(a2-6)Gal(b1-4)GlcNAc(b1-3)GalNAc
# Method in brief: as §1
# [26] = target: Neu5Ac(a2-6)Gal(b1-4)GlcNAc6S
# Method in brief: as §1
# [27] = target: Neu5Ac(a2-6)GalNAc
# Method in brief: as §1
# [28] = target: Neu5Ac(a2-6)GalNAc(b1-4)GlcNAc
# Method in brief: as §1
# [29] = target: Neu5Ac(a2-6)GlcNAc(b1-4)GlcNAc
# Method in brief: as §1
# [30] = target: Neu5Ac(a2-6)GlcNAc(b1-4)GlcNAc(b1-4)GlcNAc
# Method in brief: as §1
# [31] = target: Neu5Ac(a2-8)Neu5Ac
# Method in brief: as §1
# [32] = target: Neu5Ac(a2-8)Neu5Ac(a2-3)Gal(b1-4)Glc
# Method in brief: as §1
# [33] = target: Neu5Ac(a2-8)Neu5Ac(a2-3)[GalNAc(b1-4)]Gal(b1-4)Glc
# Method in brief: as §1
# [34] = target: Neu5Ac(a2-8)Neu5Ac(a2-8)Neu5Ac
# Method in brief: as §1
# [35] = target: Neu5Ac(a2-8)Neu5Ac(a2-8)Neu5Ac(a2-3)Gal(b1-4)Glc
# Method in brief: as §1
# [36] = target: Neu5Ac(a2-8)Neu5Ac(a2-8)Neu5Ac(a2-3)[GalNAc(b1-4)]Gal(b1-4)Glc
# Method in brief: as §1
# [37] = target: Neu5Ac(a2-8)Neu5Ac(a2-8)Neu5Ac(a2-8)Neu5Ac(a2-3)[GalNAc(b1-4)]Gal(b1-4)Glc
# Method in brief: as §1
# [38] = target: Neu5Ac(b2-6)Gal(b1-4)GlcNAc
# Method in brief: as §1
# [39] = target: Neu5Ac(b2-6)GalNAc
# Method in brief: as §1
# [40] = target: Neu5Ac9Ac(a2-3)Gal(b1-3)GlcNAc
# Method in brief: as §1
# [41] = target: Neu5Ac9Ac(a2-3)Gal(b1-4)GlcNAc
# Method in brief: as §1
# [42] = target: Neu5Ac9Ac(a2-6)Gal(b1-4)GlcNAc
# Method in brief: as §1
# [43] = target: Neu5Gc(a2-3)Gal(b1-3)GlcNAc
# Method in brief: as §1
# [44] = target: Neu5Gc(a2-3)Gal(b1-3)[Fuc(a1-4)]GlcNAc
# Method in brief: as §1
# [45] = target: Neu5Gc(a2-3)Gal(b1-4)Glc
# Method in brief: as §1
# [46] = target: Neu5Gc(a2-3)Gal(b1-4)GlcNAc
# Method in brief: as §1
# [47] = target: Neu5Gc(a2-3)Gal(b1-4)[Fuc(a1-3)]GlcNAc
# Method in brief: as §1
# [48] = target: Neu5Gc(a2-6)Gal(b1-4)GlcNAc
# Method in brief: as §1
# [49] = target: Neu5Gc(a2-6)GalNAc
# Method in brief: as §1
# [50] = target: Neu5Gc(b2-6)Gal(b1-4)GlcNAc
# Method in brief: as §1
binder,measurement,setting,value
B1,glycan array binding signal (z-score),[1],0.826
same,glycan array binding signal (z-score),[2],0.462
same,glycan array binding signal (z-score),[3],-1.96
same,glycan array binding signal (z-score),[4],0.028
same,glycan array binding signal (z-score),[5],-1.05
same,glycan array binding signal (z-score),[6],-0.922
same,glycan array binding signal (z-score),[7],0.028
same,glycan array binding signal (z-score),[8],0.29
same,glycan array binding signal (z-score),[9],0.189
same,glycan array binding signal (z-score),[10],-0.48
same,glycan array binding signal (z-score),[11],1.54
same,glycan array binding signal (z-score),[12],-0.325
same,glycan array binding signal (z-score),[13],-0.763
same,glycan array binding signal (z-score),[14],0.109
same,glycan array binding signal (z-score),[15],0.369
same,glycan array binding signal (z-score),[16],0.505
same,glycan array binding signal (z-score),[17],-0.935
same,glycan array binding signal (z-score),[18],0.753
same,glycan array binding signal (z-score),[19],0.127
same,glycan array binding signal (z-score),[20],-1.28
same,glycan array binding signal (z-score),[21],-0.608
same,glycan array binding signal (z-score),[22],0.227
same,glycan array binding signal (z-score),[23],0.834
same,glycan array binding signal (z-score),[24],0.784
same,glycan array binding signal (z-score),[25],0.864
same,glycan array binding signal (z-score),[26],-1.25
same,glycan array binding signal (z-score),[27],-1.13
same,glycan array binding signal (z-score),[28],-1.24
same,glycan array binding signal (z-score),[29],-0.318
same,glycan array binding signal (z-score),[30],0.386
same,glycan array binding signal (z-score),[31],-0.211
same,glycan array binding signal (z-score),[32],-0.554
same,glycan array binding signal (z-score),[33],-0.305
same,glycan array binding signal (z-score),[34],-0.452
same,glycan array binding signal (z-score),[35],0.214
same,glycan array binding signal (z-score),[36],-0.505
same,glycan array binding signal (z-score),[37],-0.964
same,glycan array binding signal (z-score),[38],-0.415
same,glycan array binding signal (z-score),[39],0.312
same,glycan array binding signal (z-score),[40],-1.01
same,glycan array binding signal (z-score),[41],-0.288
same,glycan array binding signal (z-score),[42],1.57
same,glycan array binding signal (z-score),[43],0.557
same,glycan array binding signal (z-score),[44],-0.132
same,glycan array binding signal (z-score),[45],-0.929
same,glycan array binding signal (z-score),[46],0.882
same,glycan array binding signal (z-score),[47],-0.553
same,glycan array binding signal (z-score),[48],-0.759
same,glycan array binding signal (z-score),[49],0.064
same,glycan array binding signal (z-score),[50],0.145

# Quoted at random: 2 records from the list, in no set order.
binder,measurement,setting,value
B1,glycan array binding signal (z-score),[9],0.189
same,glycan array binding signal (z-score),[13],-0.763
